Measurements from article PMC11850942.
No constants are given. Whether binding was seen depends on the method and setting. Binding seen in cells or lysates may run through a third protein. Here binding means that the protein was enriched with, or labelled near, the bait; the list need not be complete.

Sequences of proteins named here, by UniProt entry; tags and fusion partners are left off.
UniProt Q04206: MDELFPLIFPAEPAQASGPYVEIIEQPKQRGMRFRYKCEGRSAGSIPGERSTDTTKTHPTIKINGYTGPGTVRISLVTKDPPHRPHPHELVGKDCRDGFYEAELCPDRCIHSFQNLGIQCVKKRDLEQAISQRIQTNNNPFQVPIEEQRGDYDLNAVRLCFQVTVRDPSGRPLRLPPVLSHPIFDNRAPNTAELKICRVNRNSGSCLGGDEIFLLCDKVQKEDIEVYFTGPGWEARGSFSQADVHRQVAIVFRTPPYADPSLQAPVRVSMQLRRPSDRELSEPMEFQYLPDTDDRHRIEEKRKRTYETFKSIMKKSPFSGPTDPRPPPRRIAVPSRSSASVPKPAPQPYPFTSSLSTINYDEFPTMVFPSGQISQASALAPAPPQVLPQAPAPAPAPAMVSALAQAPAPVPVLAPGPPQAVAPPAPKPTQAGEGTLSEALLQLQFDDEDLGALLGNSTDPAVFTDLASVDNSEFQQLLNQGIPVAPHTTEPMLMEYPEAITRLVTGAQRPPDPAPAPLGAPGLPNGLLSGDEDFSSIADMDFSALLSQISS

B1: PHC1 (protein, UniProt P78364 1-1004)
chain: METESEQNSNSTNGSSSSGGSSRPQIAQMSLYERQAVQALQALQRQPNAAQYFHQFMLQQQLSNAQLHSLAAVQQATIAASRQASSPNTSTTQQQTTTTQASINLATTSAAQLISRSQSVSSPSATTLTQSVLLGNTTSPPLNQSQAQMYLRPQLGNLLQVNRTLGRNVPLASQLILMPNGAVAAVQQEVPSAQSPGVHADADQVQNLAVRNQQASAQGPQMQGSTQKAIPPGASPVSSLSQASSQALAVAQASSGATNQSLNLSQAGGGSGNSIPGSMGPGGGGQAHGGLGQLPSSGMGGGSCPRKGTGVVQPLPAAQTVTVSQGSQTEAESAAAKKAEADGSGQQNVGMNLTRTATPAPSQTLISSATYTQIQPHSLIQQQQQIHLQQKQVVIQQQIAIHHQQQFQHRQSQLLHTATHLQLAQQQQQQQQQQQQQQQPQATTLTAPQPPQVPPTQQVPPSQSQQQAQTLVVQPMLQSSPLSLPPDAAPKPPIPIQSKPPVAPIKPPQLGAAKMSAAQQPPPHIPVQVVGTRQPGTAQAQALGLAQLAAAVPTSRGMPGTVQSGQAHLASSPPSSQAPGALQECPPTLAPGMTLAPVQGTAHVVKGGATTSSPVVAQVPAAFYMQSVHLPGKPQTLAVKRKADSEEERDDVSTLGSMLPAKASPVAESPKVMDEKSSLGEKAESVANVNANTPSSELVALTPAPSVPPPTLAMVSRQMGDSKPPQAIVKPQILTHIIEGFVIQEGAEPFPVGCSQLLKESEKPLQTGLPTGLTENQSGGPLGVDSPSAELDKKANLLKCEYCGKYAPAEQFRGSKRFCSMTCAKRYNVSCSHQFRLKRKKMKEFQEANYARVRRRGPRRSSSDIARAKIQGKCHRGQEDSSRGSDNSSYDEALSPTSPGPLSVRAGHGERDLGNPNTAPPTPELHGINPVFLSSNPSRWSVEEVYEFIASLQGCQEIAEEFRSQEIDGQALLLLKEEHLMSAMNIKLGPALKICAKINVLKET
B2: PHLDA2 (protein, UniProt Q53GA4 1-152)
chain: MKSPDEVLREGELEKRSDSLFQLWKKKRGVLTSDRLSLFPASPRARPKELRFHSILKVDCVERTGKYVYFTIVTTDHKEIDFRCAGESCWNAAIALALIDFQNRRALQDFRSRQERTAPAAPAEDAVAAAAAAPSEPSEPSRPSPQPKPRTP
B3: RAD54L2 (protein, UniProt Q9Y4B4 1-1467)
chain: MSDESASGSDPDLDPDVELEDAEEEEEEEEVAVEECDRDDEEDLLDDPSLEGMCGTEHAQLGEDGQQPPRCTSTTSSQSEPSEQLRRHQGKNLASEDPKKKRAQKPSHMRRNIRKLLREDQLEPVTKAAQQEELERRKRLEQQRKDYAAPIPTVPLEFLPEEIALRASDGPQLPPRVLAQEVICLDSSSGSEDEKSSRDEVIELSSGEEDTLHIVDSSESVSEDDEEEEKGGTHVNDVLNQRDALGRVLVNLNHPPEEENVFLAPQLARAVKPHQIGGIRFLYDNLVESLERFKTSSGFGCILAHSMGLGKTLQVISFIDVLFRHTPAKTVLAIVPVNTLQNWLAEFNMWLPPPEALPADNKPEEVQPRFFKVHILNDEHKTMASRAKVMADWVSEGGVLLMGYEMYRLLTLKKSFATGRPKKTKKRSHPVIIDLDEEDRQQEFRREFEKALCRPGPDVVICDEGHRIKNCQASTSQALKNIRSRRRVVLTGYPLQNNLIEYWCMVDFVRPDFLGTRQEFSNMFERPILNGQCIDSTPQDVRLMRYRSHVLHSLLEGFVQRRGHTVLKIHLPAKEENVILVRLSKIQRDLYTQFMDRFRDCGSSGWLGLNPLKAFCVCCKIWNHPDVLYEALQKESLANEQDLDVEELGSAGTSARCPPQGTKGKGEDSTLASSMGEATNSKFLQGVGFNPFQERGNNIVTYEWAKDLLTNYQTGVLENSPKMVLLFHLIEESVKLGDKILVFSQSLSTLALIEEFLGKREVPCPPGTEGQGAQKWVRNISYFRLDGSTPAFERERLINQFNDPSNLTTWLFLLSTRAGCLGVNLIGANRVVVFDASWNPCHDAQAVCRVYRYGQKKPCYIYRLVADYTLEKKIYDRQISKQGMSDRVVDDLNPMLNFTRKEVENLLHFVEKEPAPQVSLNVKGIKESVLQLACLKYPHLITKEPFEHESLLLNRKDHKLTKAEKKAAKKSYEEDKRTSVPYTRPSYAQYYPASDQSLTSIPAFSQRNWQPTLKGDEKPVASVRPVQSTPIPMMPRHVPLGGSVSSASSTNPSMNFPINYLQRAGVLVQKVVTTTDIVIPGLNSSTDVQARINAGESIHIIRGTKGTYIRTSDGRIFAVRATGKPKVPEDGRMAASGSQGPSCESTSNGRHSASSPKAPDPEGLARPVSPDSPEIISELQQYADVAAARESRQSSPSTNAALPGPPAQLMDSSAVPGTALGTEPRLGGHCLNSSLLVTGQPCGDRHPVLDLRGHKRKLATPPAAQESSRRRSRKGHLPAPVQPYEHGYPVSGGFAMPPVSLNHNLTTPFTSQAGENSLFMGSTPSYYQLSNLLADARLVFPVTTDPLVPAGPVSSSSTATSVTASNPSFMLNPSVPGILPSYSLPFSQPLLSEPRMFAPFPSPVLPSNLSRGMSIYPGYMSPHAGYPAGGLLRSQVPPFDSHEVAEVGFSSNDDEDKDDDVIEVTGK
B4: SIX5 (protein, UniProt Q8N196 1-739)
chain: MATLPAEPSAGPAAGGEAVAAAAATEEEEEEARQLLQTLQAAEGEAAAAAGAGAGAAAAGAEGPGSPGVPGSPPEAASEPPTGLRFSPEQVACVCEALLQAGHAGRLSRFLGALPPAERLRGSDPVLRARALVAFQRGEYAELYRLLESRPFPAAHHAFLQDLYLRARYHEAERARGRALGAVDKYRLRKKFPLPKTIWDGEETVYCFKERSRAALKACYRGNRYPTPDEKRRLATLTGLSLTQVSNWFKNRRQRDRTGAGGGAPCKSESDGNPTTEDESSRSPEDLERGAAPVSAEAAAQGSIFLAGTGPPAPCPASSSILVNGSFLAASGSPAVLLNGGPVIINGLALGEASSLGPLLLTGGGGAPPPQPSPQGASETKTSLVLDPQTGEVRLEEAQSEAPETKGAQVAAPGPALGEEVLGPLAQVVPGPPTAATFPLPPGPVPAVAAPQVVPLSPPPGYPTGLSPTSPLLNLPQVVPTSQVVTLPQAVGPLQLLAAGPGSPVKVAAAAGPANVHLINSGVGVTALQLPSATAPGNFLLANPVSGSPIVTGVALQQGKIILTATFPTSMLVSQVLPPAPGLALPLKPETAISVPEGGLPVAPSPALPEAHALGTLSAQQPPPAAATTSSTSLPFSPDSPGLLPNFPAPPPEGLMLSPAAVPVWSAGLELSAGTEGLLEAEKGLGTQAPHTVLRLPDPDPEGLLLGATAGGEVDEGLEAEAKVLTQLQSVPVEEPLEL
B5: SKI (protein, UniProt P12755 1-728)
chain: MEAAAGGRGCFQPHPGLQKTLEQFHLSSMSSLGGPAAFSARWAQEAYKKESAKEAGAAAVPAPVPAATEPPPVLHLPAIQPPPPVLPGPFFMPSDRSTERCETVLEGETISCFVVGGEKRLCLPQILNSVLRDFSLQQINAVCDELHIYCSRCTADQLEILKVMGILPFSAPSCGLITKTDAERLCNALLYGGAYPPPCKKELAASLALGLELSERSVRVYHECFGKCKGLLVPELYSSPSAACIQCLDCRLMYPPHKFVVHSHKALENRTCHWGFDSANWRAYILLSQDYTGKEEQARLGRCLDDVKEKFDYGNKYKRRVPRVSSEPPASIRPKTDDTSSQSPAPSEKDKPSSWLRTLAGSSNKSLGCVHPRQRLSAFRPWSPAVSASEKELSPHLPALIRDSFYSYKSFETAVAPNVALAPPAQQKVVSSPPCAAAVSRAPEPLATCTQPRKRKLTVDTPGAPETLAPVAAPEEDKDSEAEVEVESREEFTSSLSSLSSPSFTSSSSAKDLGSPGARALPSAVPDAAAPADAPSGLEAELEHLRQALEGGLDTKEAKEKFLHEVVKMRVKQEEKLSAALQAKRSLHQELEFLRVAKKEKLREATEAKRNLRKEIERLRAENEKKMKEANESRLRLKRELEQARQARVCDKGCEAGRLRAKYSAQIEDLQVKLQHAEADREQLRADLLREREAREHLEKVVKELQEQLWPRARPEAAGSEGAAELEP
B6: SKIL (protein, UniProt P12757 1-684)
chain: MENLQTNFSLVQGSTKKLNGMGDDGSPPAKKMITDIHANGKTINKVPTVKKEHLDDYGEAPVETDGEHVKRTCTSVPETLHLNPSLKHTLAQFHLSSQSSLGGPAAFSARHSQESMSPTVFLPLPSPQVLPGPLLIPSDSSTELTQTVLEGESISCFQVGGEKRLCLPQVLNSVLREFTLQQINTVCDELYIYCSRCTSDQLHILKVLGILPFNAPSCGLITLTDAQRLCNALLRPRTFPQNGSVLPAKSSLAQLKETGSAFEVEHECLGKCQGLFAPQFYVQPDAPCIQCLECCGMFAPQTFVMHSHRSPDKRTCHWGFESAKWHCYLHVNQKYLGTPEEKKLKIILEEMKEKFSMRSGKRNQSKTDAPSGMELQSWYPVIKQEGDHVSQTHSFLHPSYYLYMCDKVVAPNVSLTSAVSQSKELTKTEASKSISRQSEKAHSSGKLQKTVSYPDVSLEEQEKMDLKTSRELCSRLDASISNNSTSKRKSESATCNLVRDINKVGIGLVAAASSPLLVKDVICEDDKGKIMEEVMRTYLKQQEKLNLILQKKQQLQMEVKMLSSSKSMKELTEEQQNLQKELESLQNEHAQRMEEFYVEQKDLEKKLEQIMKQKCTCDSNLEKDKEAEYAGQLAELRQRLDHAEADRQELQDELRQEREARQKLEMMIKELKLQILKSSKTAKE
B7: TBX1 (protein, UniProt O43435 1-398)
chain: MHFSTVTRDMEAFTASSLSSLGAAGGFPGAASPGADPYGPREPPPPPPRYDPCAAAAPGAPGPPPPPHAYPFAPAAGAATSAAAEPEGPGASCAAAAKAPVKKNAKVAGVSVQLEMKALWDEFNQLGTEMIVTKAGRRMFPTFQVKLFGMDPMADYMLLMDFVPVDDKRYRYAFHSSSWLVAGKADPATPGRVHYHPDSPAKGAQWMKQIVSFDKLKLTNNLLDDNGHIILNSMHRYQPRFHVVYVDPRKDSEKYAEENFKTFVFEETRFTAVTAYQNHRITQLKIASNPFAKGFRDCDPEDWPRNHRPGALPLMSAFARSRNPVASPTQPSGTEKGGHVLKDKEVKAETSRNTPEREVELLRDAGGCVNLGLPCPAECQPFNTQGLVAGRTAGDRLC
B8: ZBTB34 (protein, UniProt Q8NCN2 1-500)
chain: MDSSSFIQFDVPEYSSTVLSQLNELRLQGKLCDIIVHIQGQPFRAHKAVLAASSPYFRDHSALSTMSGLSISVIKNPNVFEQLLSFCYTGRMSLQLKDVVSFLTAASFLQMQCVIDKCTQILESIHSKISVGDVDSVTVGAEENPESRNGVKDSSFFANPVEISPPYCSQGRQPTASSDLRMETTPSKALRSRLQEEGHSDRGSSGSVSEYEIQIEGDHEQGDLLVRESQITEVKVKMEKSDRPSCSDSSSLGDDGYHTEMVDGEQVVAVNVGSYGSVLQHAYSYSQAASQPTNVSEAFGSLSNSSPSRSMLSCFRGGRARQKRALSVHLHSDLQGLVQGSDSEAMMNNPGYESSPRERSARGHWYPYNERLICIYCGKSFNQKGSLDRHMRLHMGITPFVCKFCGKKYTRKDQLEYHIRGHTDDKPFRCEICGKCFPFQGTLNQHLRKNHPGVAEVRSRIESPERTDVYVEQKLENDASASEMGLDSRMEIHTVSDAPD

What follows are binders tested against p65(wt)-HA-miniTurbo (human) (UniProt Q04206).

binding, binds:
B1
B2
B3
B4
B5
B6
B7
B8
